Test results: patent publication US8802634B2, “CD40-L Inhibitory Peptides” (Phylogica Limited, priority 2008, dated 2014)
At least one compound was matched to its structure with a doubt left.

Key:
[1] = target: T1, CD40L (Homo sapiens, UniProt P29965); experiment: Octet Red label-free association/dissociation analysis; assay type: binding; details: base peptides; equilibrium dissociation constant
T1 construct: measures of the “on” and “off” rates of the peptides relative to soluble CD40L
T1 sequence (P29965 113-261 limits assumed): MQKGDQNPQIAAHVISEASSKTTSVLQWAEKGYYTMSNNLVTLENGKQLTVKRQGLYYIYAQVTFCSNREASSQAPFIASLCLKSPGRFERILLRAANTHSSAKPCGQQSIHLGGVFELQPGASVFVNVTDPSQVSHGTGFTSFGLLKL
Procedure: Label-free analyses of the associations and dissociations of base peptides and serine derivatives of base peptides with the CD40L target protein were performed using the Octet Red system (ForteBio, Inc., USA) according to the manufacturer's instructions. These analyses provide kinetic constants of CD40L binding activity, especially the association rate constant (Ka) and dissociation rate constant (Kd) of binding, i.e., measures of the “on” and “off” rates of the peptides relative to soluble CD40L.

[2] = target: T2, CD40L/CD40-Fc (Homo sapiens, UniProt P29965); experiment: Chemiluminescent proximity assay (Alphascreen) of CD40L-CD40 interaction; assay type: binding; details: read-out: EC50nmodified) CD40L/CD40-Fc/BAF617; unmodified (non-PEGylated) monomeric base peptide
T2 sequence (P29965 113-261 limits assumed): T1 sequence (P29965 113-261 limits assumed)
Procedure: In one example, the Alphascreen assay (PerkinElmer) was employed according to the manufacturer's instructions.
Homodimers and heterodimers were also assayed by chemiluminescent proximity assay for their ability to inhibit CD40L-CD40 interaction.

LAEHAVWSLKCFPDWEWYNINIFGTDDPNHFWVECDGHGKILFPGYPEGYYENHFLHSFELED (cysteines drawn unpaired) [CD40L M8_747]
Kd [1]: 8 nM | EC50 [2]: 197 nM
